Test system: human liver organoids

## CCCCc1oc2ccccc2c1C(=O)c1cc(I)c(OCCN(CC)CC)c(I)c1 [amiodarone]
  viability / toxicity to organoids in dose finding: significantly toxic

From US20190298775A1, “LIVER ORGANOID COMPOSITIONS AND METHODS OF MAKING AND USING SAME” (Children's Hospital Medical Center, priority 2016, published 2019)
